## Library screen at single concentrations

The filed quantity is “Percent Effect” (%).
The record does not define 0% and 100%; most values in the screen are far below 50% and negative numbers occur (in some assays of this library far below -100).
Compounds were drawn at random from those tested, without regard to their results.
Two or more numbers in one place are separate tests of the same structure; such repeats can differ widely.

Mtb glucose medium: 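Whole-cell growth test on Mycobacterium tuberculosis, read after 3 days in glucose-containing 7H9 medium; the read-out is not stated. Concentration: 50 µM. The record gives no direction; compounds that gave an IC50 in retests scored well above the rest, so higher reads as more growth inhibition. Size under these conditions: about 69,000 compounds, about 760 of them at 50% or above in at least one test.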
Mtb cholesterol medium: 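Growth of Mycobacterium tuberculosis over 4 days (cholesterol / DPPC medium with tyloxapol); the read-out is not stated. Tested at 50 µM. Direction is inferred from retests: higher values go with more growth inhibition. About 69,000 compounds were tested under these conditions; 0.54% (about 370) showed 50% or more at least once.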

compound: Cc1cc2n(n1)CC(CNCc1cc(C)on1)CN2 (centres undefined)
Mtb glucose medium: 10.6
Mtb cholesterol medium: 16.57

compound: Cc1ccoc1C(=O)NC1CCN(C(=O)Nc2ccccn2)CC1
Mtb glucose medium: 0.3454
Mtb cholesterol medium: -2.347

compound: CCOc1ccc(Cl)c(C(=O)NCCS(N)(=O)=O)n1
Mtb glucose medium: 3.818
Mtb cholesterol medium: -13.74

compound: CC(=O)N1CCN(C(=O)c2cc(-n3cnnn3)ccc2Cl)CC1
Mtb glucose medium: -3.853 and -20.23
Mtb cholesterol medium: -7.228

compound: CN(Cc1cnn(C)c1)C1CCCN(Cc2noc(C3CC3)n2)C1 (centres undefined)
Mtb glucose medium: -66.32
Mtb cholesterol medium: -55.19

compound: Cc1noc(C2CCCN(C(=O)c3cccc(Cl)c3)C2)n1 (centres undefined)
Mtb glucose medium: 17.78
Mtb cholesterol medium: 1.175 and -18.63

compound: Cl.Cl.c1ccc2c(c1)C(NC1CCCC1)CC21CCNCC1 (centres undefined)
Mtb glucose medium: -2.623
Mtb cholesterol medium: 0.99

compound: CNS(=O)(=O)c1cc(C(=O)N2CCCCCC2CC(C)C)co1 (centres undefined)
Mtb glucose medium: 0.3328 and 3.207
Mtb cholesterol medium: 0.7257

compound: Cc1nnc(-c2cccc(N3CCC(NC4CCSC4)CC3)c2)s1 (centres undefined)
Mtb glucose medium: 4.468 and 4.825
Mtb cholesterol medium: 15.26

compound: NC(=O)CN1CCCN(C(=O)Cc2ccc3c(c2)OCCO3)CC1
Mtb glucose medium: 0.08299
Mtb cholesterol medium: 10.3

compound: CC1N(CC2CC2)C(=O)COC12CCN(C(=O)c1cnccn1)CC2 (centres undefined)
Mtb glucose medium: -9.017 and -14.32
Mtb cholesterol medium: 2.231

compound: CC(C)c1nnc(NC(=O)NC2CCN(Cc3ccccc3)C2)s1 (centres undefined)
Mtb glucose medium: -28.87
Mtb cholesterol medium: -3.762

compound: COc1ccc(CNC(Cc2cccs2)c2nc(C)c(C)s2)cc1OC.Cl (centres undefined)
Mtb glucose medium: 13.95
Mtb cholesterol medium: 13.75

compound: Cn1cnc2c(-c3cccnc3)nc(C3CCN(S(C)(=O)=O)CC3)cc21
Mtb glucose medium: -18.56
Mtb cholesterol medium: -11.04

compound: Cc1noc(C)c1CN1CC2(CCCCN2c2cncnc2)CC1=O (centres undefined)
Mtb glucose medium: 5.45 and -7.07
Mtb cholesterol medium: 9.534

compound: O=C(c1cc(=O)n(-c2ccccc2)[nH]1)N1CCCC(c2ccn[nH]2)C1 (centres undefined)
Mtb glucose medium: 1.889
Mtb cholesterol medium: -6.864

compound: CC(C)OCCS(=O)(=O)c1nccn1-c1cccc(F)c1
Mtb glucose medium: 18.75
Mtb cholesterol medium: -9.749

compound: CN(Cc1ccccn1)C(=O)C(c1ccccc1)N1CCSCC1 (centres undefined)
Mtb glucose medium: 25.15
Mtb cholesterol medium: -6.603 and -11.64

compound: CCc1nc(CNCC2CCCN2c2cc(NC)ncn2)cs1 (centres undefined)
Mtb glucose medium: 11.13
Mtb cholesterol medium: -8.152

compound: C=C(C)COc1ccc(C(CC(=O)OC)c2oc(C)cc(=O)c2O)cc1 (centres undefined)
Mtb glucose medium: -17.79
Mtb cholesterol medium: -15.97

compound: CCCNC(=O)CN1CCOC(CC)C1 (centres undefined)
Mtb glucose medium: 15.14
Mtb cholesterol medium: 16.85

compound: CCCN1CCC(c2nc3ccc(-c4ccncc4)cn3n2)CC1.O=C(O)C(F)(F)F.O=C(O)C(F)(F)F
Mtb glucose medium: 4.29
Mtb cholesterol medium: -13.54

compound: CCN1C(=O)CCCC12CCCN(C(=O)c1ccoc1C)C2 (centres undefined)
Mtb glucose medium: 6.103
Mtb cholesterol medium: -14.5

compound: CCN1CC2(CCC1=O)CCN(Cc1nncn1C)CC2
Mtb glucose medium: 18.98
Mtb cholesterol medium: -6.826

compound: Cc1ccc(C(=O)N2CCC(C(F)(F)F)CC2)cc1N1CCNC1=O
Mtb glucose medium: 18.13
Mtb cholesterol medium: -5.009 and 10.98

compound: COCCn1cnnc1Cn1ccnc1-c1ccsc1
Mtb glucose medium: -1.05
Mtb cholesterol medium: -4.168

compound: CCn1cc(NC(=O)C2CCN(CC(=O)NC3CCCC3)CC2)cn1
Mtb glucose medium: -11.95
Mtb cholesterol medium: -0.9155

compound: COc1ccnc(N2CCN(Cc3nc(-c4ccoc4)no3)CC2)c1
Mtb glucose medium: 10.09
Mtb cholesterol medium: 12.28

compound: Cn1cnc(S(=O)(=O)NCCCN2CCOCC2)c1Cl
Mtb glucose medium: 13.9
Mtb cholesterol medium: -10.71

compound: OC1=C2C(=Nc3n[nH]c(O)c3C2c2ccco2)CCC1 (centres undefined)
Mtb glucose medium: -1.403 and -29.12
Mtb cholesterol medium: -4.955

compound: CC(C)(C)OC(=O)N1CC(CC(=O)NCc2ccnc(C3CC3)c2)C1
Mtb glucose medium: 17.4
Mtb cholesterol medium: 16.75

compound: COC(=O)C(C)(C)NC(=O)C1CC(=O)N(CC(C)C)C1 (centres undefined)
Mtb glucose medium: -12.39
Mtb cholesterol medium: -20.49

compound: Cc1nnc(NC(=O)NCc2ccc(C)n2C)s1
Mtb glucose medium: -10.46
Mtb cholesterol medium: -18.87

compound: CCNc1cc2c(nn1)CCN(C(=O)C1CCc3ccccc31)C2 (centres undefined)
Mtb glucose medium: -8.394 and -11.48
Mtb cholesterol medium: -5.042

compound: Cc1ccc(C(=O)Nc2cc(C(N)=O)ccc2CN(C)C)cc1Cl
Mtb glucose medium: 27.99
Mtb cholesterol medium: 6.513

compound: Cc1cc(C(=O)N2CCN(c3nc4c(C(C)C)cccc4s3)CC2)on1
Mtb glucose medium: 58.13
Mtb cholesterol medium: 65.27

compound: COc1cc2c(cc1CNC(=O)C(C)n1ccnc1C(C)C)OCCO2 (centres undefined)
Mtb glucose medium: -2.879 and -35.02
Mtb cholesterol medium: -2.815

compound: CN(C)c1cc(CNC(=O)Nc2cccnc2N2CCCC2)ccn1
Mtb glucose medium: 18.59
Mtb cholesterol medium: -27.56

compound: COCC1CCN(S(=O)(=O)N2C[C@H](c3ccccc3)[C@@H](N)C2)CC1
Mtb glucose medium: 33.93
Mtb cholesterol medium: -1.133

compound: CCN(CC)C(=O)CCNC(=O)N(C)Cc1ccc(SC)c(OC)c1
Mtb glucose medium: -1.106
Mtb cholesterol medium: -4.641

Repeated from the top, 4 entries:

| compound | Mtb glucose medium | Mtb cholesterol medium |
|---|---|---|
| `Cc1cc2n(n1)CC(CNCc1cc(C)on1)CN2` (centres undefined) | 10.6 | 16.57 |
| `Cc1ccoc1C(=O)NC1CCN(C(=O)Nc2ccccn2)CC1` | 0.3454 | -2.347 |
| `CCOc1ccc(Cl)c(C(=O)NCCS(N)(=O)=O)n1` | 3.818 | -13.74 |
| `CC(=O)N1CCN(C(=O)c2cc(-n3cnnn3)ccc2Cl)CC1` | -3.853 and -20.23 | -7.228 |

Measurements from “University of Dundee, Small-Polar-MMV Screening Library” (2021), ChEMBL document CHEMBL3988442.